Results as given in US20240109968A1 (NEW YORK UNIVERSITY, published 2024).
These are yes or no findings as the source states them, for the method shown. Some entries that bind do so weakly or less than the wild type.

Tests used:
[1] = target: human galectin-9 on the cell surface (CRL-2134 cell line; cells of patient tumor organoid fractions) (human) (UniProt O00182); assay: flow cytometry on cells of S2 and S3 fractions of human tumor biopsies
[2] = target: human galectin-9 on the cell surface (CRL-2134 cell line; cells of patient tumor organoid fractions) (human) (UniProt O00182); assay: flow cytometry, colorectal carcinoma biopsy, S3 fraction, CD3+ cells; readout % Gal9+ cells
[3] = target: human galectin-9 on the cell surface (CRL-2134 cell line; cells of patient tumor organoid fractions) (human) (UniProt O00182); assay: flow cytometry, colorectal carcinoma biopsy, S2 fraction, CD3+ cells; readout % Gal9+ cells
[4] = target: human galectin-9 on the cell surface (CRL-2134 cell line; cells of patient tumor organoid fractions) (human) (UniProt O00182); assay: flow cytometry, colorectal carcinoma biopsy, S3 fraction, CD11b+ cells; readout % Gal9+ cells
[5] = target: human galectin-9 on the cell surface (CRL-2134 cell line; cells of patient tumor organoid fractions) (human) (UniProt O00182); assay: flow cytometry, colorectal carcinoma biopsy, S3 fraction, EpCam+ cells; readout % Gal9+ cells
[6] = target: human galectin-9 on the cell surface (CRL-2134 cell line; cells of patient tumor organoid fractions) (human) (UniProt O00182); assay: flow cytometry, colorectal carcinoma biopsy, S2 fraction, CD11b+ cells; readout % Gal9+ cells
[7] = target: human galectin-9 on the cell surface (CRL-2134 cell line; cells of patient tumor organoid fractions) (human) (UniProt O00182); assay: flow cytometry, colorectal carcinoma biopsy, S2 fraction, EpCam+ cells; readout % Gal9+ cells
[8] = target: human galectin-9 on the cell surface (CRL-2134 cell line; cells of patient tumor organoid fractions) (human) (UniProt O00182); assay: flow cytometry, pancreatic adenocarcinoma biopsy, S3 fraction, CD3+ cells; readout % Gal9+ cells
[9] = target: human galectin-9 on the cell surface (CRL-2134 cell line; cells of patient tumor organoid fractions) (human) (UniProt O00182); assay: flow cytometry, pancreatic adenocarcinoma biopsy, S2 fraction, CD3+ cells; readout % Gal9+ cells
[10] = target: human galectin-9 on the cell surface (CRL-2134 cell line; cells of patient tumor organoid fractions) (human) (UniProt O00182); assay: flow cytometry, pancreatic adenocarcinoma biopsy, S3 fraction, CD11b+ cells; readout % Gal9+ cells
[11] = target: human galectin-9 on the cell surface (CRL-2134 cell line; cells of patient tumor organoid fractions) (human) (UniProt O00182); assay: flow cytometry, pancreatic adenocarcinoma biopsy, S3 fraction, EpCam+ cells; readout % Gal9+ cells
[12] = target: human galectin-9 on the cell surface (CRL-2134 cell line; cells of patient tumor organoid fractions) (human) (UniProt O00182); assay: flow cytometry, pancreatic adenocarcinoma biopsy, S2 fraction, CD11b+ cells; readout % Gal9+ cells
[13] = target: human galectin-9 on the cell surface (CRL-2134 cell line; cells of patient tumor organoid fractions) (human) (UniProt O00182); assay: flow cytometry, pancreatic adenocarcinoma biopsy, S2 fraction, EpCam+ cells; readout % Gal9+ cells
[14] = target: human galectin-9 on the cell surface (CRL-2134 cell line; cells of patient tumor organoid fractions) (human) (UniProt O00182); assay: flow cytometry, second pancreatic adenocarcinoma biopsy, S3 fraction, CD3+ cells; readout % Gal9+ cells
[15] = target: human galectin-9 on the cell surface (CRL-2134 cell line; cells of patient tumor organoid fractions) (human) (UniProt O00182); assay: flow cytometry, second pancreatic adenocarcinoma biopsy, S2 fraction, CD3+ cells; readout % Gal9+ cells
[16] = target: human galectin-9 on the cell surface (CRL-2134 cell line; cells of patient tumor organoid fractions) (human) (UniProt O00182); assay: flow cytometry, second pancreatic adenocarcinoma biopsy, S3 fraction, CD11b+ cells; readout % Gal9+ cells
[17] = target: human galectin-9 on the cell surface (CRL-2134 cell line; cells of patient tumor organoid fractions) (human) (UniProt O00182); assay: flow cytometry, second pancreatic adenocarcinoma biopsy, S3 fraction, EpCam+ cells; readout % Gal9+ cells
[18] = target: human galectin-9 on the cell surface (CRL-2134 cell line; cells of patient tumor organoid fractions) (human) (UniProt O00182); assay: flow cytometry, second pancreatic adenocarcinoma biopsy, S2 fraction, CD11b+ cells; readout % Gal9+ cells
[19] = target: human galectin-9 on the cell surface (CRL-2134 cell line; cells of patient tumor organoid fractions) (human) (UniProt O00182); assay: flow cytometry, second pancreatic adenocarcinoma biopsy, S2 fraction, EpCam+ cells; readout % Gal9+ cells
[20] = target: cynomolgus monkey galectin-9 CRD2 domain (cynomolgus monkey); assay: bead-based binding assay
[21] = target: human galectin-9 on the cell surface (CRL-2134 cell line; cells of patient tumor organoid fractions) (human) (UniProt O00182); assay: cell-based binding, CRL-2134 cells
[22] = target: cynomolgus monkey galectin-9 CRD2 domain (cynomolgus monkey); assay: summary of in vitro binding studies
[23] = target: Galectin-9 on the HuProt Human Proteome Microarray (human) (UniProt O00182); assay: HuProt array, High-Spec antibody cross-reactivity assay
[24] = target: human galectin-9 on the cell surface (CRL-2134 cell line; cells of patient tumor organoid fractions) (human) (UniProt O00182); assay: cell surface staining, flow cytometry on CRL-2134 cells
[25] = target: Galectin-9 on the HuProt Human Proteome Microarray (human) (UniProt O00182); assay: CDI HuProt Human Proteome Microarray, fluorescent secondary antibody

Measured: binding

B1: G9.2-17 Fab (Fab, V domains shown)
VH: EVQLVESGGGLVQPGGSLRLSCAASGFTVSSSSIHWVRQAPGKGLEWVAYISSSSGYTYYADSVKGRFTISADTSKNTAYLQMNSLRAEDTAVYYCARYWSYPSWWPYRGMDYWGQGTLVTVSS
VL: DIQMTQSPSSLSASVGDRVTITCRASQSVSSAVAWYQQKPGKAPKLLIYSASSLYSGVPSRFSGSRSGTDFTLTISSLQPEDFATYYCQQSSTDPITFGQGTKVEIKR
binds: [1] | [2] | [3] | [4] | [5] | [6] | [7] | [8] | [9] | [10] | [11] | [12] | [13] | [14] | [15] | [16] | [17] | [18] | [19]

B2: G9.2-17 mIgG1 (mouse IgG1 version of G9.2-17) (antibody, V domains shown)
VH: EVQLVESGGGLVQPGGSLRLSCAASGFTVSSSSIHWVRQAPGKGLEWVAYISSSSGYTYYADSVKGRFTISADTSKNTAYLQMNSLRAEDTAVYYCARYWSYPSWWPYRGMDYWGQGTLVTVSS
VL: DIQMTQSPSSLSASVGDRVTITCRASQSVSSAVAWYQQKPGKAPKLLIYSASSLYSGVPSRFSGSRSGTDFTLTISSLQPEDFATYYCQQSSTDPITFGQGTKVEIKR
binds: [20] | [21]

B3: anti-Galectin-9 antibody G9.2-17 (IgG4) (antibody, V domains shown)
VH: EVQLVESGGGLVQPGGSLRLSCAASGFTVSSSSIHWVRQAPGKGLEWVAYISSSSGYTYYADSVKGRFTISADTSKNTAYLQMNSLRAEDTAVYYCARYWSYPSWWPYRGMDYWGQGTLVTVSS
VL: DIQMTQSPSSLSASVGDRVTITCRASQSVSSAVAWYQQKPGKAPKLLIYSASSLYSGVPSRFSGSRSGTDFTLTISSLQPEDFATYYCQQSSTDPITFGQGTKVEIKR
notes: Human IgG4 with S228P (EU); also called G9.2-17(Ig4); G9.2-17 hIgG4 Fab Arm Exchange mut
binds: [22] | [23] | [24] | [25]
